Results deposited as PubChem BioAssay AID1159578 (Peter MacCallum Cancer Centre, 2015).
Test: 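siRNA pools altering how lymphatic endothelial cells close a scratch wound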 (primary screen). Cells: human lymphatic endothelial cells. Knock-down reagent: siRNA pool against human genes, 40 nM. Duration: 48 h after transfection. Detection: 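Cells stained with dye and imaged after a scratch; covered wound area and nuclei counted, duplicates averaged, migration set against mock wells and turned into a robust z-score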. Scale: migration robust z-score: higher = faster migration into the scratch; nuclei per well: higher = more cells in the well. Rule for the call: 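Pools averaging fewer than 3300 nuclei are never called; remaining pools count as changed when migration robust z lies outside -2 to 2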. Meaning of the calls: active = migration changed; inactive = no migration change, or too few cells.
Shown is a random part of about 18,000 deposited reagents. About 1,030 of them (5.7%) were called active. 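Inactive calls also include pools with fewer than 3300 nuclei, whose migration was not assessed.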 The raw values are shown without normalisation. Not all columns of the deposit are shown. No sequences are given here.

After knock-down of RASAL3 (RAS protein activator like 3), the record shows migration robust z-score 0.97; nuclei per well, duplicate mean 6284; inactive.
For TRAT1 (T cell receptor associated transmembrane adaptor 1) the deposit lists migration robust z-score -0.82; nuclei per well, duplicate mean 5040; inactive.
For FGD5 (FYVE, RhoGEF and PH domain containing 5), the entry reads migration robust z-score 0.36; nuclei per well, duplicate mean 4842; inactive.
With knock-down of CEACAM1 (CEA cell adhesion molecule 1) the results were migration robust z-score -1.55; nuclei per well, duplicate mean 5343; inactive.
USH2A (usherin) showed migration robust z-score -0.48; nuclei per well, duplicate mean 6366; inactive.
MC4R (melanocortin 4 receptor) showed migration robust z-score 0.88; nuclei per well, duplicate mean 5553; inactive.
Knock-down of SPRING1 (SREBF pathway regulator in golgi 1) came out at: migration robust z-score -0.32; nuclei per well, duplicate mean 7290; inactive.
Against ECHDC1 (ethylmalonyl-CoA decarboxylase 1), the values are migration robust z-score 0.84; nuclei per well, duplicate mean 5731; inactive.
CD58 (CD58 molecule) showed migration robust z-score -0.6; nuclei per well, duplicate mean 3891; inactive.
Depletion of H2AC14 (H2A clustered histone 14) came out at: migration robust z-score 0.09; nuclei per well, duplicate mean 5831; inactive.
Knock-down of INTS11 (integrator complex subunit 11) gave: migration robust z-score -0.64; nuclei per well, duplicate mean 6374; inactive.
After knock-down of COL28A1 (collagen type XXVIII alpha 1 chain) the results were migration robust z-score 1.25; nuclei per well, duplicate mean 4948; inactive.

Laid out differently: entries from further up
{"Gene": "ECHDC1 (ethylmalonyl-CoA decarboxylase 1)", "migration robust z-score": 0.84, "nuclei per well, duplicate mean": 5731, "activity call": "inactive"}
{"Gene": "CD58 (CD58 molecule)", "migration robust z-score": -0.6, "nuclei per well, duplicate mean": 3891, "activity call": "inactive"}
